Experimental data reported in paper PMC5533935.
These are yes or no findings as the source states them, for the method shown. Some entries that bind do so weakly or less than the wild type.

Chains of the proteins cited; added tags and fusions are not shown. Lines headed by an entry give the natural chain unless they say otherwise; changes in a name come on top.
UniProt P08670: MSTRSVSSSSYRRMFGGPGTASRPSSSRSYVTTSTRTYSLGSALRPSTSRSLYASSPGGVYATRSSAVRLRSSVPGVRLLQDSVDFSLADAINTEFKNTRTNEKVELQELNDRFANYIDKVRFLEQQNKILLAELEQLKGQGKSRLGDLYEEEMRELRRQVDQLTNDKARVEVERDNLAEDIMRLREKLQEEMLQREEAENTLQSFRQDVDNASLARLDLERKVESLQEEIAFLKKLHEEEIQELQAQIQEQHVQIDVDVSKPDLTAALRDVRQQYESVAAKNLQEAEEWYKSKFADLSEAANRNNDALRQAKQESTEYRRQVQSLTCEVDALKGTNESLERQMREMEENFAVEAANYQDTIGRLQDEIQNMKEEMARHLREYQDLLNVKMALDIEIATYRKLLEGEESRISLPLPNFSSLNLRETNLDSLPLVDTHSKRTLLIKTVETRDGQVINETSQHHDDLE
UniProt P03101: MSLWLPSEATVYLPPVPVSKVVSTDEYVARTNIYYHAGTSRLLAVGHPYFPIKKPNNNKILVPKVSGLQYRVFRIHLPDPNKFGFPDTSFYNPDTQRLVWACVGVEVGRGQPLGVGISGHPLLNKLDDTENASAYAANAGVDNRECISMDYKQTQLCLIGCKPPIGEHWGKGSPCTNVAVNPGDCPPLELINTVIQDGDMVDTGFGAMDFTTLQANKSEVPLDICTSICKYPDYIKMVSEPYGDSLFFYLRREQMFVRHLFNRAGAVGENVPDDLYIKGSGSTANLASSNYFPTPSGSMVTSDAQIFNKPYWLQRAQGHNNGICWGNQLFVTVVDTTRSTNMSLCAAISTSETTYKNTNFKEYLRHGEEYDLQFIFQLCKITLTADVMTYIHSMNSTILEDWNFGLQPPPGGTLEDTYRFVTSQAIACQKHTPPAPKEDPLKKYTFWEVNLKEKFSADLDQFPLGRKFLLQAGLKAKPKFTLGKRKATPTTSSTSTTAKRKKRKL

Target: recombinant human vimentin protein (human) (UniProt P08670)
Assay: pull-down; cell-free; 1 μg of HPV16-PsVs (with or without furin pretreatment) per 10 μg of immobilized recombinant human vimentin (Pierce coimmunoprecipitation kit); Western blot with CamVir1; both purified

**Q.** “HPV16 pseudovirions (untreated, not furin-cleaved) (from UniProt P03101 1-505; P03107 1-473) (complex)” was tested. Which binding did it give?
**A.** binds
